# From PMC10443802 (JCI Insight, 2023)
# Several values for one entry are separate records, joined by “and”; a condition that tells them apart may be missing. Identical values can stand only once. Where a SMILES comes first, the peptide text is derived from it.
# System: OATP1B2
# Assay: Untargeted metabolomics of plasma and DRG, WT vs OATP1B2-deficient mice
# Format: in vivo, mouse
# [1] = untargeted metabolomics, WT vs OATP1B2-deficient mice, supplement sheet "Figure 5B"
# [2] = untargeted metabolomics, sheet "Figure 5C", WT vs OATP1B2-deficient mice
# [3] = untargeted metabolomics, WT vs OATP1B2-deficient mice, supplement sheet "Figure 5B" (volcano plot)
# [4] = Figure 5B source data (volcano plot), untargeted metabolomics, WT vs OATP1B2-deficient mice, log2 fold change of metabolite level
Structure (SMILES),Log2FoldChange [1],Log2FoldChange [2],further results
CC(=O)NC(Cc1c[nH]c2ccccc12)C(=O)O (stereo not shown) [N-acetyltryptophan],0.111,0.3561,
CC(=O)N[C@@H](Cc1ccc(O)cc1)C(=O)O [N-acetyltyrosine],,0.09761,Log2FoldChange [3]: 0.3448
CC(=O)N[C@H](C(=O)O)C(C)C [N-acetylvaline],0,0.189,
CC(=O)N[C@@H](CCCN)C(=O)O [N-alpha-acetylornithine],-0.08927,,
CCC/C=C\CCCCCCCC/C=C/C(O)C(CO)NC(=O)CCCCCCCCCCCCCCCCCCCCC (stereo not shown) [N-behenoyl-sphingadienine (d18:2/22:0)*],,,Log2FoldChange [4]: -0.5564
CC(=O)NCCC[C@H](N)C(=O)O [N-delta-acetylornithine],0.09761,0.2265,
O=CNc1ccccc1C(=O)O [N-formylanthranilic acid],,,Log2FoldChange [4]: -0.2345
CSCC[C@H](NC=O)C(=O)O [N-formylmethionine],,0.263,
O=CNC(Cc1ccccc1)C(=O)O (stereo not shown) [N-formylphenylalanine],,0.111,Log2FoldChange [4]: -0.2176
O=C(CO)N[C@H]1[C@H]([C@H](O)[C@H](O)CO)OC(O)(C(=O)O)C[C@@H]1O (stereo partly shown) [N-glycolylneuraminate],,0.02857,Log2FoldChange [3]: 0.275
CCCCC/C=C\C/C=C\CCCCCCCC(=O)NCCS(=O)(=O)O [N-linoleoyltaurine*],0.189,,
CNCCCC(=O)O [N-methyl-GABA],-0.0145,0.3334,
CN1CCCCC1C(=O)O (stereo not shown) [N-methylpipecolate],,,Log2FoldChange [4]: -0.6439
CNC(=N)NCCC[C@H](N)C(=O)O [N-monomethylarginine],,,"Log2FoldChange (mouse, in vivo): 0.2388 and 0"
CCCCCCCC(=O)NCC(=O)O [N-octanoylglycine],,,Log2FoldChange [3]: 0.6781
CCCCCCCC/C=C\CCCCCCCC(=O)N[C@@H](CO)C(=O)O [N-oleoylserine],,0.251,
CCCCCCCC/C=C\CCCCCCCC(=O)NCCS(=O)(=O)O [N-oleoyltaurine],0.1763,0.3448,
CCCCCCCCCCCCC/C=C/C(O)C(CO)NC(=O)CCCCCCCCCCCCCCC (stereo not shown) [N-palmitoyl-sphingosine (d18:1/16:0)],0.111,-0.3585,
CCCCCCCCCCCCCCCC(=O)NCC(=O)O [N-palmitoylglycine],0.1763,0.4436,
CCCCCCCCCCCCCCCC(=O)NCCS(=O)(=O)O [N-palmitoyltaurine],,0.3334,Log2FoldChange [3]: 0.2265
CCC/C=C\CCCCCCCC/C=C/[C@@H](O)[C@H](CO)NC(=O)CCCCCCCCCCCCCCCCC [N-stearoyl-sphingadienine (d18:2/18:0)*],,-0.152,
CCCCCCCCCCCCC/C=C/C(O)C(CO)NC(=O)CCCCCCCCCCCCCCCCC (stereo not shown) [N-stearoyl-sphingosine (d18:1/18:0)*],-0.1681,-0.6897,
CCCCCCCCCCCCCCCCCC(=O)N[C@@H](CO)C(=O)O [N-stearoylserine*],,0.5261,Log2FoldChange [4]: -1.059
CCCCCCCCCCCCCCCCCC(=O)NCCS(=O)(=O)O [N-stearoyltaurine],0.08406,0.4005,
COc1ccc(C[C@H](N)C(=O)O)cc1 [O-methyltyrosine],,0.585,
N[C@@H](Cc1ccc(OS(=O)(=O)O)cc1)C(=O)O [O-sulfo-L-tyrosine],,0.189,Log2FoldChange [3]: 0.263
O=C(O)[C@@H]1CCC=N1 [S-1-pyrroline-5-carboxylate],,0.3785,Log2FoldChange [3]: 0.6781

Structure (SMILES),Log2FoldChange [1],Log2FoldChange [2],further results
Nc1ncnc2c1ncn2[C@@H]1O[C@H](CSCC[C@H](N)C(=O)O)[C@@H](O)[C@H]1O [S-adenosylhomocysteine (SAH)],,0.1763,Log2FoldChange [3]: 0.3448
C[S+](CCCN)C[C@H]1O[C@@H](n2cnc3c(N)ncnc32)[C@H](O)[C@@H]1O (stereo partly shown) [S-adenosylmethioninamine],,0.251,
C[S+](CC[C@H](N)C(=O)[O-])C[C@H]1O[C@@H](n2cnc3c(N)ncnc32)[C@H](O)[C@@H]1O (stereo partly shown) [S-adenosylmethionine (SAM)],,0.5261,
CSC[C@H](NC(=O)CC[C@H](N)C(=O)O)C(=O)NCC(=O)O [S-methylglutathione],,0.251,Log2FoldChange [3]: 0.251
C[S+](C)CC[C@H](N)C(=O)[O-] [S-methylmethionine],-0.1047,,
CC(=O)OP(=O)(O)O [acetylphosphate],,-0.1203,
O=C(O)C=C(CC(=O)O)C(=O)O [aconitate [cis or trans]],0.08406,,
Nc1ncnc2c1ncn2[C@@H]1O[C@H](CO)[C@@H](O)[C@H]1OP(=O)(O)O [adenosine 2'-monophosphate (2'-AMP)],,0.189,
Nc1ncnc2c1ncn2[C@@H]1O[C@H](CO)[C@@H](OP(=O)(O)O)[C@H]1O [adenosine 3'-monophosphate (3'-AMP)],,0.02857,
Nc1ncnc2c1ncn2[C@@H]1O[C@H](CO)[C@@H](O)[C@H]1O [adenosine],,0.3561,Log2FoldChange [3]: 0.6415
C[N+](C)(C)C[C@@H](CC(=O)[O-])OC(=O)CCCCC(=O)O [adipoylcarnitine (C6-DC)],-0.1681,,
CCCCC/C=C\C/C=C\C/C=C\C/C=C\CCCCCC(=O)O [adrenate (22:4n6)],,0.6508,
CCCCC/C=C\C/C=C\C/C=C\C/C=C\CCCCCC(=O)O[C@H](CC(=O)[O-])C[N+](C)(C)C [adrenoylcarnitine (C22:4)*],,0.9486,
C[C@H](N)C(=O)O [alanine],,0.05658,
CC(C)C[C@H](NC(=O)[C@H](C)N)C(=O)O [alanylleucine] (H-Ala-Leu-OH),,0.3103,
NC(=O)NC(NC(N)=O)C(=O)O [allantoic acid],,,Log2FoldChange [4]: -0.1844
NC(=O)NC1NC(=O)NC1=O (stereo not shown) [allantoin],-0.0145,0.1375,
CC(C)CC(O)C(=O)O (stereo not drawn) [alpha-hydroxyisocaproate],,,Log2FoldChange [3]: 1.195
CC(C)C(O)C(=O)O (stereo not drawn) [alpha-hydroxyisovalerate],,1.202,Log2FoldChange [3]: 0.7485
NC(=O)CCC(=O)C(=O)O [alpha-ketoglutaramate*],,0.3219,Log2FoldChange [3]: 0.2388
C[C@H](CCC(=O)O)[C@H]1CC[C@H]2[C@@H]3[C@H](O)[C@@H](O)[C@@H]4C[C@H](O)CC[C@]4(C)[C@H]3CC[C@]12C [alpha-muricholate],,,Log2FoldChange [3]: 5.499
Cn1cncc1C[C@H](NC(=O)CCN)C(=O)O [anserine],,,Log2FoldChange [3]: 0.6041
Nc1ccccc1C(=O)O [anthranilate],,,Log2FoldChange [3]: 0.3674
CCCCCCCCCCCCCCCCCCCC(=O)O [arachidate (20:0)],-0.1047,-0.1361,
CCCCC/C=C\C/C=C\C/C=C\C/C=C\CCCC(=O)O [arachidonate (20:4n6)],,0.263,
CCCCC/C=C\C/C=C\C/C=C\C/C=C\CCCC(=O)NCCO [arachidonoyl ethanolamide],,0.263,
